The results in this text go back to the supplement of paper PMC7666118.

Sequences of proteins named here, by UniProt entry; tags and fusion partners are left off. A change or cut given only in a name is not applied to a line headed by its entry.
UniProt P21359: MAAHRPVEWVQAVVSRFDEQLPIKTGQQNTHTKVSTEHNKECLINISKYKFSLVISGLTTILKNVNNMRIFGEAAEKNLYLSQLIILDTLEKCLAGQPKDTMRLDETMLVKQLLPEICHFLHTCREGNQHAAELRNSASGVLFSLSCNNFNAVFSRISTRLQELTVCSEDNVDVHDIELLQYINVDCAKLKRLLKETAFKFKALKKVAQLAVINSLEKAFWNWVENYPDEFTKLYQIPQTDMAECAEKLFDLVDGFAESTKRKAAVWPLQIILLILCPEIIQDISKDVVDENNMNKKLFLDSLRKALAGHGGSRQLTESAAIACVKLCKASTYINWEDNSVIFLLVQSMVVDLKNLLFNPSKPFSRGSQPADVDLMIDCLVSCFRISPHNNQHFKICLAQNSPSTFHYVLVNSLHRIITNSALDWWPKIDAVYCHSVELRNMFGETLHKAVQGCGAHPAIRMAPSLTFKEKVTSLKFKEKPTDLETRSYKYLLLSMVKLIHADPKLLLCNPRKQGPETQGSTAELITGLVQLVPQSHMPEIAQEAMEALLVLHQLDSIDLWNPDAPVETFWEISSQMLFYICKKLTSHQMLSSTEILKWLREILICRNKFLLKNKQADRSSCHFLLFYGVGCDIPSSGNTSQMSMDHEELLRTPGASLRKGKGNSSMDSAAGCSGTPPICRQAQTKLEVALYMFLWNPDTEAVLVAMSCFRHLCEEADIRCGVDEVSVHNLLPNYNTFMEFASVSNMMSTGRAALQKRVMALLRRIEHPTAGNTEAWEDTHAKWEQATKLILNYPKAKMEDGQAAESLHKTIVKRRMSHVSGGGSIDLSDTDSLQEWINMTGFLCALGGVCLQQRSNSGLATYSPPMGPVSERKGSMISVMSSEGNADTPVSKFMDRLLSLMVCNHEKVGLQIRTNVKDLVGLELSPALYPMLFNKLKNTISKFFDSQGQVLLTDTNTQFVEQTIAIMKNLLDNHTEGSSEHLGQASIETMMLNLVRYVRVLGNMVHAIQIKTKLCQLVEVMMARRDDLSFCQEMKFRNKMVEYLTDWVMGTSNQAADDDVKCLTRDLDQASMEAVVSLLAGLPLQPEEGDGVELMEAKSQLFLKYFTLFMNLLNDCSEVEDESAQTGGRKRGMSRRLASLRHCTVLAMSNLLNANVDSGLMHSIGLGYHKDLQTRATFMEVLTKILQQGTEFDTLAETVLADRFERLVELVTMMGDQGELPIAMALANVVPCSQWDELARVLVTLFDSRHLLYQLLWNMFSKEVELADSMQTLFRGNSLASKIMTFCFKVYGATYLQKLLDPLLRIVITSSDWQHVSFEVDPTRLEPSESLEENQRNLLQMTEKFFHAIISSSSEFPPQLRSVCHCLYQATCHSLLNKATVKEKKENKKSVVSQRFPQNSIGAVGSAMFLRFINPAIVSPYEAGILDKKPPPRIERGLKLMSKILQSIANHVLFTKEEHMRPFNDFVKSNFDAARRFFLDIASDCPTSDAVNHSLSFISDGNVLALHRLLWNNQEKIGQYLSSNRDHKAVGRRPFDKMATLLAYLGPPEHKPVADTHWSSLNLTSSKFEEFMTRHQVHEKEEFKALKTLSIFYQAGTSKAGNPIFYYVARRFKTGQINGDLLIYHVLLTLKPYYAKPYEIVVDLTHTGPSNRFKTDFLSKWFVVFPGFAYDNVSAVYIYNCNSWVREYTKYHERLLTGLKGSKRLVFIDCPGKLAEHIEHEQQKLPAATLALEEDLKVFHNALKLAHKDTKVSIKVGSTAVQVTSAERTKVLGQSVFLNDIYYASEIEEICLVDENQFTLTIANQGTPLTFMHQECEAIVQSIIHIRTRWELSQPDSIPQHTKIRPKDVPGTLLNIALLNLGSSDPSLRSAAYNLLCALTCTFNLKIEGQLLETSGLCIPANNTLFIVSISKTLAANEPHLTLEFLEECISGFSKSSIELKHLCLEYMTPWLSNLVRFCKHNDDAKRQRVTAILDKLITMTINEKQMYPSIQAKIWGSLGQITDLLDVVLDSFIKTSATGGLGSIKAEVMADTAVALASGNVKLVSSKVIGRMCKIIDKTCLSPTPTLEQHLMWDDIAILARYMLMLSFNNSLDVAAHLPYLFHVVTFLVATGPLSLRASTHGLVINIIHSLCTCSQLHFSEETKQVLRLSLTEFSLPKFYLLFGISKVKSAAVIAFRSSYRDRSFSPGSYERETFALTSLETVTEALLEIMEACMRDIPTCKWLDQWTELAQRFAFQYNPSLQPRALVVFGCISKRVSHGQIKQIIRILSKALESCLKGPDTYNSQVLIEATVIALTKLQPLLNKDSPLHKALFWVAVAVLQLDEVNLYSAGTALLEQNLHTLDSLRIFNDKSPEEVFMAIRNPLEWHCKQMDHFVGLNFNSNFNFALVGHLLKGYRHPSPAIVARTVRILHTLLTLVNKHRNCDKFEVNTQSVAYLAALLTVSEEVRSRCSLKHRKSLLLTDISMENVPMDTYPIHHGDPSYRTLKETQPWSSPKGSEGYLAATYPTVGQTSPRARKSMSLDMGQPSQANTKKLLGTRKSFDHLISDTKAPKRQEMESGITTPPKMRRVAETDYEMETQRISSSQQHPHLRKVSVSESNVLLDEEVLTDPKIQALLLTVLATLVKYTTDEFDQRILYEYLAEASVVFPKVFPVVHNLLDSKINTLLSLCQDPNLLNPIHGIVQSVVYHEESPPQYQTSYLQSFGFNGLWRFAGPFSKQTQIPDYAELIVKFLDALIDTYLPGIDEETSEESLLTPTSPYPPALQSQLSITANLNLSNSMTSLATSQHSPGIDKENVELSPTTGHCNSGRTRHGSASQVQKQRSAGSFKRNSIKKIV
UniProt Q9HBL8: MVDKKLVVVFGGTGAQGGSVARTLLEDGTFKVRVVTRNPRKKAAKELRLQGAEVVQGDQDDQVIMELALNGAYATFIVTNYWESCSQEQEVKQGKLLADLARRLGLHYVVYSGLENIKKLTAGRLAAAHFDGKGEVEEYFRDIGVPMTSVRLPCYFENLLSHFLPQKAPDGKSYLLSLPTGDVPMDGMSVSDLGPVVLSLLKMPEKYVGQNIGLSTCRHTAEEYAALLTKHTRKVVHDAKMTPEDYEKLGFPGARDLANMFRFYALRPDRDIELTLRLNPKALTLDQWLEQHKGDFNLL
UniProt Q96G61: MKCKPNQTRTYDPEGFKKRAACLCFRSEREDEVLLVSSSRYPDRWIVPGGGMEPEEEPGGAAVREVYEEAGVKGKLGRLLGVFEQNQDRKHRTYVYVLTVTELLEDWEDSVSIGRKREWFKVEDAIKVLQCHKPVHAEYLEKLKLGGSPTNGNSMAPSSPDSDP
UniProt P49790, whole entry: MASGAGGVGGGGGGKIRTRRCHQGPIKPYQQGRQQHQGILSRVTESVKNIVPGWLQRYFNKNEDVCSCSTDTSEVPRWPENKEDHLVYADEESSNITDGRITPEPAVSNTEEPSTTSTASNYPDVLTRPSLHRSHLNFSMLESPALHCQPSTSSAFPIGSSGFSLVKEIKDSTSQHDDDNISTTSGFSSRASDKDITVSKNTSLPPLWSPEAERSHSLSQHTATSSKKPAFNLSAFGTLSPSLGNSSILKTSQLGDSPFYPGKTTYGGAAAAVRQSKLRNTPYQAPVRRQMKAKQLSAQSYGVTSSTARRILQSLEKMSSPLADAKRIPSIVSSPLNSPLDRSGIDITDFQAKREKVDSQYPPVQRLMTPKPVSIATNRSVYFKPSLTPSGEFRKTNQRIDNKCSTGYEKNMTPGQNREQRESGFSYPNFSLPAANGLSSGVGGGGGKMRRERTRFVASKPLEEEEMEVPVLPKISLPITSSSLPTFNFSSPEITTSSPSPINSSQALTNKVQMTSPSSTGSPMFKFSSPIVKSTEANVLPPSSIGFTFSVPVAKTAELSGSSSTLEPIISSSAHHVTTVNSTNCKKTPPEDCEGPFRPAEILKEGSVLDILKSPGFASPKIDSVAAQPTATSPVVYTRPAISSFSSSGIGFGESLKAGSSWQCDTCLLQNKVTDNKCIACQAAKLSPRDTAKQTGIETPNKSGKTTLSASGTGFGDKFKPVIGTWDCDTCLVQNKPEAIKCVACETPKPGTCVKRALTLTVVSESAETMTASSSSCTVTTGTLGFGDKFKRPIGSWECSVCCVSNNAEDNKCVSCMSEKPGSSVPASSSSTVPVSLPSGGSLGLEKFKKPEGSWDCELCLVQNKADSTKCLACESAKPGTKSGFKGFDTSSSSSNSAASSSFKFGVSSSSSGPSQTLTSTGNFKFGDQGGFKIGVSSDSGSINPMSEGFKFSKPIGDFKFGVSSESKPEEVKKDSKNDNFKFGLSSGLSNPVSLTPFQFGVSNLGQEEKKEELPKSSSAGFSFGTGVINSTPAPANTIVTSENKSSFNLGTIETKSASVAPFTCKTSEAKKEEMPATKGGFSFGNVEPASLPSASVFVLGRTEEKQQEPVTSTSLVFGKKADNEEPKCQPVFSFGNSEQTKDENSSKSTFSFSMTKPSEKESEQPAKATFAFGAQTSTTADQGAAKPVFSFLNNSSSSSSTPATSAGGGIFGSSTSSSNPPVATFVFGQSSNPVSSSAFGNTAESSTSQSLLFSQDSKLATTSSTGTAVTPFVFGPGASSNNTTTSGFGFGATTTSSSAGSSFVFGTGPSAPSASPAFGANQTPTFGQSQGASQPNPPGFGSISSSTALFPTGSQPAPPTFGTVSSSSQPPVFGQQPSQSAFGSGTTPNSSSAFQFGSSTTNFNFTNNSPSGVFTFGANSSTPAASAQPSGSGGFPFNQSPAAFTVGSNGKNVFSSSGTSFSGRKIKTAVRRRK
UniProt Q9NWU1, whole entry: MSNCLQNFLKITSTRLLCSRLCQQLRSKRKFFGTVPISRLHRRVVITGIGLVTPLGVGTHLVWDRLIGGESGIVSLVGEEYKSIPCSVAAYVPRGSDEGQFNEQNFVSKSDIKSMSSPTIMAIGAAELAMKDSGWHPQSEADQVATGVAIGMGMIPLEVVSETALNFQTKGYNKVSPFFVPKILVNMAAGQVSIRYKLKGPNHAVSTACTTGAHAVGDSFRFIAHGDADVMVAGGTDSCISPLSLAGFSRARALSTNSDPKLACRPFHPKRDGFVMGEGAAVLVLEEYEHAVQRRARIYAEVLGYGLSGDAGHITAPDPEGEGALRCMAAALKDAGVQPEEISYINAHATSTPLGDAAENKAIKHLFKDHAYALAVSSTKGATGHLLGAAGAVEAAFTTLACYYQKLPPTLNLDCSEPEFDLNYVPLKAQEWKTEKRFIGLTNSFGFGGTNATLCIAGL
UniProt Q9Y5N5: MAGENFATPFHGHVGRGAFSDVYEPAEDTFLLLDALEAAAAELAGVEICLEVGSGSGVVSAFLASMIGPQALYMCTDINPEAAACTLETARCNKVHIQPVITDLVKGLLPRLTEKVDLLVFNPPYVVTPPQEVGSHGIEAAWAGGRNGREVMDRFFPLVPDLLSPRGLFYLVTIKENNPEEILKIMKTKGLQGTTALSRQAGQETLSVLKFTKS
UniProt Q15653: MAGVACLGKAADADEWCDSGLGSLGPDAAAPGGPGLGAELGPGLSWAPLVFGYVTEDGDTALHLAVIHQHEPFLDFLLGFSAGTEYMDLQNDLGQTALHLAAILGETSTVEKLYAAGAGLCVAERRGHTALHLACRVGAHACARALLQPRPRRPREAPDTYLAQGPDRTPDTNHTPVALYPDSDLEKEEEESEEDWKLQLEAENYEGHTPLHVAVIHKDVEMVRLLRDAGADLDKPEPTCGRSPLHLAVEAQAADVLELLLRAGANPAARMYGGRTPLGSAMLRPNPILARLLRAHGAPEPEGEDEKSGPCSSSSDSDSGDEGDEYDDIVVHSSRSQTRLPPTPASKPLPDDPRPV
UniProt Q9BSD7: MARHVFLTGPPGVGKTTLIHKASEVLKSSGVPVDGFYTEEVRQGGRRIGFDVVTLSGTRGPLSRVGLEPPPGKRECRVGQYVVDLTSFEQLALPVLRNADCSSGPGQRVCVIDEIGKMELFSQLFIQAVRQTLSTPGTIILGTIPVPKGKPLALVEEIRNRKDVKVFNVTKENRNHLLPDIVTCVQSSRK
UniProt P07237: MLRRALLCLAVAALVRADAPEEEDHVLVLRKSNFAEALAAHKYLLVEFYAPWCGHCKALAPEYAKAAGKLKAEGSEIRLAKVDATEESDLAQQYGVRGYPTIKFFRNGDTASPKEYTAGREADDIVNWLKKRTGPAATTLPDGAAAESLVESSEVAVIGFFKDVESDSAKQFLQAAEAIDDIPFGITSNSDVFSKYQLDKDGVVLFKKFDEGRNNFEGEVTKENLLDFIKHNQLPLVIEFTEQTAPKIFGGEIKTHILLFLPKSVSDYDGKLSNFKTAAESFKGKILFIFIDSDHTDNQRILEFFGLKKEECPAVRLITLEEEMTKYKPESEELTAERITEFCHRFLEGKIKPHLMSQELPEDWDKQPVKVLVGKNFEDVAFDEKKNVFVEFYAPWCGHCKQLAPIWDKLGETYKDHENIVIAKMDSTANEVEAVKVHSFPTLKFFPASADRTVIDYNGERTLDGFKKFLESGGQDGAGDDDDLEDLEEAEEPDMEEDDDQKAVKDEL

The list shows a part of the results.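 The calls were made as follows: active = dose-dependent thermal stabilisation significant by F-test of dose-response against flat model at 10% FDR; inactive = not significant.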

Compound in this test: Nc1nc2c(ncn2[C@@H]2O[C@H](COP(=O)(O)OP(=O)(O)OP(=O)(O)O)[C@@H](O)[C@H]2O)c(=O)[nH]1
As to the kind of experiment: dose-dependent thermal stabilisation call (2D-TPP, DLPTP, 10% FDR) (binary (1 = stabilised)); higher = stabilised by the compound. The conditions noted are these: system: Jurkat gel-filtered lysate; concentration range 1-500 µM. The procedure:
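2D thermal proteome profiling in gel-filtered Jurkat E6.1 lysate (2 mg/ml) treated with NaGTP (0, 1, 10, 100, 500 uM) for 10 min at room temperature, then heated 3 min at one of 12 temperatures (42-63.9 C). Soluble protein was quantified by TMT10 MS. The value is the DLPTP call of the paper: dose-dependent thermal stabilisation over all temperatures at 10% FDR (F-test of a dose-response against a flat model); one experiment, one call per tested protein.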
As to OTUD7B (UniProt Q6GQQ9), the “dose-dependent thermal stabilisation call” value is inactive: 0.
With NAA50 (UniProt Q9GZZ1) the figure was inactive: 0; with OTUD4 (UniProt Q01804), inactive: 0.
Next, NUDT5 (UniProt Q9UKK9): inactive: 0.
Next, NAGK (UniProt Q9UJ70): inactive: 0.
For the target NCL (UniProt P19338), the “dose-dependent thermal stabilisation call” value is inactive: 0.
With NR2C1 (UniProt P13056) the figure was active: 1; with NAXD (UniProt Q8IW45), inactive: 0; with NAP1L1 (UniProt P55209), inactive: 0.
For the target NQO2 (UniProt P16083), the “dose-dependent thermal stabilisation call” value was inactive: 0.
Next, NF1 (UniProt P21359): inactive: 0; NOTCH1 (UniProt P46531): inactive: 0.
Consider NUDT1 (UniProt P36639), for which the “dose-dependent thermal stabilisation call” value is inactive: 0.
With NUP58 (UniProt Q9BVL2) the figure was inactive: 0; with NDRG2 (UniProt Q9UN36), inactive: 0; with NPM3 (UniProt O75607), inactive: 0.
On to NMRAL1 (UniProt Q9HBL8), for which the “dose-dependent thermal stabilisation call” value was inactive: 0.
With NMI (UniProt Q13287) the figure was inactive: 0; with P4HA1 (UniProt P13674), inactive: 0.
For PAWR (UniProt Q96IZ0), the “dose-dependent thermal stabilisation call” value is inactive: 0.
Regarding NUDT11 (UniProt Q96G61), the “dose-dependent thermal stabilisation call” value was inactive: 0.
Next, NUP153 (UniProt P49790): inactive: 0; P3H1 (UniProt Q32P28): active: 1; NR3C1 (UniProt P04150): inactive: 0.
Next, PARVG (UniProt Q9HBI0): active: 1.
On to NOP2 (UniProt P46087), for which the “dose-dependent thermal stabilisation call” value was inactive: 0.
As to NCAPG2 (UniProt Q86XI2), the “dose-dependent thermal stabilisation call” value was active: 1.
With NSMCE2 (UniProt Q96MF7) the figure was inactive: 0.
With NAPRT (UniProt Q6XQN6) the figure was active: 1; with OXSM (UniProt Q9NWU1), inactive: 0; with N6AMT1 (UniProt Q9Y5N5), active: 1.
With PAICS (UniProt P22234) the figure was inactive: 0; with NUCB1 (UniProt Q02818), inactive: 0.
Turning to NECAP1 (UniProt Q8NC96), the “dose-dependent thermal stabilisation call” value is inactive: 0.
With NCK2 (UniProt O43639) the figure was inactive: 0; with NFKBIB (UniProt Q15653), inactive: 0; with NOL7 (UniProt Q9UMY1), inactive: 0.
With NTPCR (UniProt Q9BSD7) the figure was active: 1.
With PARP4 (UniProt Q9UKK3) the figure was inactive: 0; with P4HB (UniProt P07237), inactive: 0.
